The values below are quoted from earlier work in patent publication US9913873B2, “Turmeric extract containing soft pastilles” (priority 2013, dated 2018).

Each structure is given as a SMILES string.

For the data set the following is noted: background statement; cited from earlier work.

On to `COc1cc(/C=C/C(=O)CC(=O)/C=C/c2ccc(O)c(OC)c2)ccc1O` [Curcumin], for which the Solubility in water entry is given as “insoluble”.
